# Test results: PMC4849736
# Results are given in words; binding and its absence hold for the method and conditions named.
# Target: Golgi phosphoprotein 3 (GOLPH3), cytosolic pool (human (endogenous in MCF 10A, MCF7, MDA-MB-231)), Q9H4A6
# Assay: SEC; cytosolic fractions of MCF 10A, MCF7 and MDA-MB-231 cells on a Superose 6 10/300 GL column in 50 mM Tris HCl, 0.5 M NaCl, pH 8.0; fractions read by SDS-PAGE and immunoblot with antibody to GOLPH3; column calibrated with proteins of known Stokes radii
# Conditions: remark: other sources report otherwise
binder,measurement,value
"Golgi phosphoprotein 3 (GOLPH3), cytosolic pool, Q9H4A6 1-298 (protein) MTSLTQRSSGLVQRRTEASRNAADKERAAGGGAGSSEDDAQSRRDEQDDDDKGDSKETRLTLMEEVLLLGLKDREGYTSFWNDCISSGLRGCMLIELALRGRLQLEACGMRRKSLLTRKVICKSDAPTGDVLLDEALKHVKETQPPETVQNWIELLSGETWNPLKLHYQLRNVRERLAKNLVEKGVLTTEKQNFLLFDMTTHPLTNNNIKQRLIKKVQEAVLDKWVNDPHRMDRRLLALIYLAHASDVLENAFAPLLDEQYDLATKRVRQLLDLDPEVECLKANTNEVLWAVVAAFTK",binding,no binding
